Assay results: PMC11865978 (ACS Omega, 2025)
Plain letter strings leave the end groups untold.

experiment: general procedure: Fmoc solid-phase peptide synthesis; TentaGel S Rink amide resin (Rapp Polymere, loading 0.22 mmol/g); HATU/DIPEA; conditions: whole synthesis, 220 nm

Row | Sequence | final HPLC purity [%]
1 | RRRRRAQWW | 98
2 | RRRRRCAWW | 98
3 | RRRRRCQAW | 98
4 | RRRRRCQW | 97
5 | RRRRRCQWA | 95
6 | RRRRRCQWW | >99
7 | RRRRRFQWW | >99
8 | RRRRRHQWW | 98
9 | RRRRRMQWW | 97
10 | RRRRRQWW | >99
11 | RRRRRWWQC | 96
